Data taken from patent US9708244B2, “Coloring material and method for producing the same” (DAI NIPPON PRINTING CO., LTD., priority 2012, dated 2017).

Legend:
[1] = Evaluation of dyeing property by using water (dyed fabric washed with running water); parameters: key: ∘: There was no loss of color from the fabric; Δ: There was a loss of color from the fabric; x: No color remained on the fabric; settings: dyed fabric washed with running water at 20° C. for 10 minutes, loss of color visually observed
[2] = Evaluation of dyeing property by using detergent (dyed fabric immersed in detergent, then washed); parameters: key: ∘: There was no loss of color from the fabric; Δ: There was a loss of color from the fabric; x: No color remained on the fabric; settings: immersed in surfactant-containing detergent 5 minutes, then running water at 20° C. for 5 minutes, visually observed

SMILES | Dyeing property: washed with running water [1] | Dyeing property: immersed in detergent and then washed with running water [2]
CCN(CC)c1ccc(C(=C2C=CC(=[N+](CC)CC)C=C2)c2ccc(NCc3ccc(CNc4ccc(C(=C5C=CC(=[N+](CC)CC)C=C5)c5ccc(N(CC)CC)cc5)c5ccccc45)cc3)c3ccccc23)cc1.[Cl-].[Cl-] [Color material A] | ∘ | ∘
CCN(CC)c1ccc(C(=C2C=CC(=[N+](CC)CC)C=C2)c2ccc(NCc3ccc(CNc4ccc(C(=C5C=CC(=[N+](CC)CC)C=C5)c5ccc(N(CC)CC)cc5)c5ccccc45)cc3)c3ccccc23)cc1 [Color material B] | ∘ | ∘
CCNc1ccc(C(=C2C=CC(=[N+](CC)CC)C=C2)c2ccc(N(CC)CC)cc2)c2ccccc12.[Cl-] [Color material D, Basic Blue 7 (CI-42595)] | x | x
CCNc1ccc(C(=C2C=CC(=[N+](CC)CC)C=C2)c2ccc(N(CC)CC)cc2)c2ccccc12.Cc1ccc(S(=O)(=O)[O-])cc1 [Color material E] | Δ | x
CCNc1ccc(C(=C2C=CC(=[N+](CC)CC)C=C2)c2ccc(N(CC)CC)cc2)c2ccccc12 [Color material F] | Δ | x
